Columns and labels:
[1] = test system: CLL samples compared to a panel of normal tissues; test: Identification and label-free relative LC-MS quantitation of HLA-presented peptides (presentation profiles and scores); design: species or system human; key: very highly over-presented on tumors compared to a panel of normal tissues (+++); highly over-presented on tumors compared to a panel of normal tissues (++); over-presented on tumors compared to a panel of normal tissues (+); settings: presentation score; over-presentation on tumors (CLL samples) compared to a panel of normal tissues
[2] = test system: other tumor types (e.g. non-Hodgkin lymphoma, lung cancer); test: Presentation of the peptides on additional tumor types (LC-MS, Tables 4A/4B, FIG. 1); design: species or system human; settings: for Other relevant organs/diseases: Table 4A: additional tumor types where the peptide was over-presented on more than 5% of the measured tumor samples, or presented on more than 5% with ratio of geometric means tumor vs normal tissues larger than 3; for Additional Entities: Table 4B: additional tumour types with over-presentation (including specific presentation) on more than 5% of the measured tumour samples, or presentation on more than 5% with ratio of geometric means tumour vs normal tissues larger than 3, extended normal tissue panel

Substance | Peptide Presentation [1] | Other relevant organs/diseases [2] | Additional Entities [2]
37 (FIMEGGAMVL; listed as Homo sapiens) [compound 37] | +++ | AML | NHL
310 (LLSTLHLLV; listed as Homo sapiens) [compound 310] | + | NHL | 
191 (YIFDGSDGGV; listed as Homo sapiens) [compound 191] | +++ |  | Uterine Cancer
299 (ILEENIPVL; listed as Homo sapiens) [compound 299] | ++ | NHL | Uterine Cancer, AML
243 (ILPTLEKELFL; listed as Homo sapiens) [compound 243] | + | AML | 
281 (NLLDDRGMTAL; listed as Homo sapiens) [compound 281] | +++ | NHL, AML | 
68 (GLDQQFAGLDL; listed as Homo sapiens) [compound 68] | +++ | RCC, HCC, NHL, Melanoma | BRCA, OC, Uterine Cancer, Gallbladder Cancer, Bile Duct Cancer, HNSCC
147 (SILETVATL; listed as Homo sapiens) [compound 147] | +++ | NHL, AML | Melanoma
352 (ALVFELHYV; listed as Homo sapiens) [compound 352] | + | NHL | 
212 (NIIEAINELLV; listed as Homo sapiens) [compound 212] | ++ | NHL, BRCA, Melanoma | Uterine Cancer, AML, HNSCC
290 (LANPHELSL; listed as Homo sapiens) [compound 290] | +++ | AML | 
336 (YMAVTTQEV; listed as Homo sapiens) [compound 336] | +++ |  | Uterine Cancer
186 (VMDPTKILI; listed as Homo sapiens) [compound 186] | +++ | AML, Urinary bladder cancer | 
229 (FLLNLQNCHL; listed as Homo sapiens) [compound 229] | ++ | NHL | 
102 (IQDRAVPSL; listed as Homo sapiens) [compound 102] | +++ | AML | 
245 (KIMDYSLLLGV; listed as Homo sapiens) [compound 245] | + | SCLC, RCC, OC | 
162 (SMKDDLENV; listed as Homo sapiens) [compound 162] | +++ | NSCLC, SCLC, RCC, HCC, NHL, BRCA, Melanoma, Esophageal Cancer, Uterine Cancer, Gallbladder Cancer, Bile Duct Cancer | PC, OC, HNSCC
235 (GLDDLLLFL; listed as Homo sapiens) [compound 235] | + | SCLC, PC, NHL, AML, Urinary bladder cancer, Uterine Cancer, Gallbladder Cancer, Bile Duct Cancer | BRCA, HNSCC
266 (TLLDQLDTQL; listed as Homo sapiens) [compound 266] | + | NHL, OC, Urinary bladder cancer | CRC, BRCA, Uterine Cancer
94 (ILFPLRFTL; listed as Homo sapiens) [compound 94] | +++ | NSCLC, RCC, CRC, NHL, Melanoma, OC | Gallbladder Cancer, Bile Duct Cancer, AML, HNSCC
328 (VLLPQETAEIHL; listed as Homo sapiens) [compound 328] | ++ | NHL, BRCA, Melanoma, OC, Urinary bladder cancer | 

Source: patent US10064928B2, “Peptides and combination of peptides for use in immunotherapy against CLL and other cancers” (IMMATICS BIOTECHNOLOGIES GMBH, priority 2015, dated 2018)
